From publication PMC8274477
These are yes or no findings as the source states them, for the method shown. Some entries that bind do so weakly or less than the wild type.

By UniProt entry, the sequences of proteins in these tests, tags left out.
UniProt O94911: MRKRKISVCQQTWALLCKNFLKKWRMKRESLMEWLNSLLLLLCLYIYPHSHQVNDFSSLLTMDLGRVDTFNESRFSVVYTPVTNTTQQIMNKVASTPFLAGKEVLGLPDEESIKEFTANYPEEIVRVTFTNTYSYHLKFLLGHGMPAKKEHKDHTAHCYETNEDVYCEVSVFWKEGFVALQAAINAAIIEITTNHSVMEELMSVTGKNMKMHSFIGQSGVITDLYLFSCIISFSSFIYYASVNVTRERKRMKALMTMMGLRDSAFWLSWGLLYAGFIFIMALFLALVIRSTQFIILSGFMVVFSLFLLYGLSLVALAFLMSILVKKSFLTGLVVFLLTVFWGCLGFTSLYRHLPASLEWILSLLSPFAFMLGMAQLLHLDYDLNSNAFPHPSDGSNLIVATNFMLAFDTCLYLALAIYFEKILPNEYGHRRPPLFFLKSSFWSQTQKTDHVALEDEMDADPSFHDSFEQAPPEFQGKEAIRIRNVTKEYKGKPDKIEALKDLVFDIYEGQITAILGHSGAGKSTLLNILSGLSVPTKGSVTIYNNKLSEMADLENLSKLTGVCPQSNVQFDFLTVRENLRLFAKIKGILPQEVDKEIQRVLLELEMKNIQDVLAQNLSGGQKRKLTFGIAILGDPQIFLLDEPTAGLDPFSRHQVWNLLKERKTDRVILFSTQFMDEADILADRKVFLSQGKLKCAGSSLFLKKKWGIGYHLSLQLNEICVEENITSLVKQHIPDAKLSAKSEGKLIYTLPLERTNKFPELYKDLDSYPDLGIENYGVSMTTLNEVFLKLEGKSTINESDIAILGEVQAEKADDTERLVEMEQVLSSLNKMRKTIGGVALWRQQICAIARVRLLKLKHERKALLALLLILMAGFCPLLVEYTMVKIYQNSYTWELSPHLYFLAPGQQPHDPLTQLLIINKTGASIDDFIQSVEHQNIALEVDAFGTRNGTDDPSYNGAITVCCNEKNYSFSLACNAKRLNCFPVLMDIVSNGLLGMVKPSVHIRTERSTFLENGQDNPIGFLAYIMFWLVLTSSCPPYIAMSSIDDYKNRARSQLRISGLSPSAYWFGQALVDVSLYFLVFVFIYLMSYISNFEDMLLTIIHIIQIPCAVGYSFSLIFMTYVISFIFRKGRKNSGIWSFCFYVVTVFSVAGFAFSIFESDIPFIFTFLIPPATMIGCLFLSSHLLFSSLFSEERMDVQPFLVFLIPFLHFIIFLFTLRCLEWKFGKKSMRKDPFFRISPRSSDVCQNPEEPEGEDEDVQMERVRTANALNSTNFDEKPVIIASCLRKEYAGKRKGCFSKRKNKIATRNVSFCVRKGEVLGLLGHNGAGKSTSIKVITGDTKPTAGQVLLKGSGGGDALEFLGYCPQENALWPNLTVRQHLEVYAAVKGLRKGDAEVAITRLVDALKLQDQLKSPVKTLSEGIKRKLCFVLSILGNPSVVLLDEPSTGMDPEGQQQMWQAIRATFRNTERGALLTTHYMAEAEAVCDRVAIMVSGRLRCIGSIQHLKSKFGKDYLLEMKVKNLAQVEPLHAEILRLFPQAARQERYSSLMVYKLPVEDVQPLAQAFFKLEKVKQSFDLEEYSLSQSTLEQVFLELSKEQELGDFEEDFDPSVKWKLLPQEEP
UniProt P07910: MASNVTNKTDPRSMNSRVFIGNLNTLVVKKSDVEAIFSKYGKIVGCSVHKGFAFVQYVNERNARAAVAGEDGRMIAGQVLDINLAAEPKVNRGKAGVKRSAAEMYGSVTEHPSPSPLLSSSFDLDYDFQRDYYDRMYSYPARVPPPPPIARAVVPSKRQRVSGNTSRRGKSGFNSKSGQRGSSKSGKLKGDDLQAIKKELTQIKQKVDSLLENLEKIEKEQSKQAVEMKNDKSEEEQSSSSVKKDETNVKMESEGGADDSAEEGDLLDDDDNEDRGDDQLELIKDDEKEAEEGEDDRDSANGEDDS
UniProt Q5JSZ5: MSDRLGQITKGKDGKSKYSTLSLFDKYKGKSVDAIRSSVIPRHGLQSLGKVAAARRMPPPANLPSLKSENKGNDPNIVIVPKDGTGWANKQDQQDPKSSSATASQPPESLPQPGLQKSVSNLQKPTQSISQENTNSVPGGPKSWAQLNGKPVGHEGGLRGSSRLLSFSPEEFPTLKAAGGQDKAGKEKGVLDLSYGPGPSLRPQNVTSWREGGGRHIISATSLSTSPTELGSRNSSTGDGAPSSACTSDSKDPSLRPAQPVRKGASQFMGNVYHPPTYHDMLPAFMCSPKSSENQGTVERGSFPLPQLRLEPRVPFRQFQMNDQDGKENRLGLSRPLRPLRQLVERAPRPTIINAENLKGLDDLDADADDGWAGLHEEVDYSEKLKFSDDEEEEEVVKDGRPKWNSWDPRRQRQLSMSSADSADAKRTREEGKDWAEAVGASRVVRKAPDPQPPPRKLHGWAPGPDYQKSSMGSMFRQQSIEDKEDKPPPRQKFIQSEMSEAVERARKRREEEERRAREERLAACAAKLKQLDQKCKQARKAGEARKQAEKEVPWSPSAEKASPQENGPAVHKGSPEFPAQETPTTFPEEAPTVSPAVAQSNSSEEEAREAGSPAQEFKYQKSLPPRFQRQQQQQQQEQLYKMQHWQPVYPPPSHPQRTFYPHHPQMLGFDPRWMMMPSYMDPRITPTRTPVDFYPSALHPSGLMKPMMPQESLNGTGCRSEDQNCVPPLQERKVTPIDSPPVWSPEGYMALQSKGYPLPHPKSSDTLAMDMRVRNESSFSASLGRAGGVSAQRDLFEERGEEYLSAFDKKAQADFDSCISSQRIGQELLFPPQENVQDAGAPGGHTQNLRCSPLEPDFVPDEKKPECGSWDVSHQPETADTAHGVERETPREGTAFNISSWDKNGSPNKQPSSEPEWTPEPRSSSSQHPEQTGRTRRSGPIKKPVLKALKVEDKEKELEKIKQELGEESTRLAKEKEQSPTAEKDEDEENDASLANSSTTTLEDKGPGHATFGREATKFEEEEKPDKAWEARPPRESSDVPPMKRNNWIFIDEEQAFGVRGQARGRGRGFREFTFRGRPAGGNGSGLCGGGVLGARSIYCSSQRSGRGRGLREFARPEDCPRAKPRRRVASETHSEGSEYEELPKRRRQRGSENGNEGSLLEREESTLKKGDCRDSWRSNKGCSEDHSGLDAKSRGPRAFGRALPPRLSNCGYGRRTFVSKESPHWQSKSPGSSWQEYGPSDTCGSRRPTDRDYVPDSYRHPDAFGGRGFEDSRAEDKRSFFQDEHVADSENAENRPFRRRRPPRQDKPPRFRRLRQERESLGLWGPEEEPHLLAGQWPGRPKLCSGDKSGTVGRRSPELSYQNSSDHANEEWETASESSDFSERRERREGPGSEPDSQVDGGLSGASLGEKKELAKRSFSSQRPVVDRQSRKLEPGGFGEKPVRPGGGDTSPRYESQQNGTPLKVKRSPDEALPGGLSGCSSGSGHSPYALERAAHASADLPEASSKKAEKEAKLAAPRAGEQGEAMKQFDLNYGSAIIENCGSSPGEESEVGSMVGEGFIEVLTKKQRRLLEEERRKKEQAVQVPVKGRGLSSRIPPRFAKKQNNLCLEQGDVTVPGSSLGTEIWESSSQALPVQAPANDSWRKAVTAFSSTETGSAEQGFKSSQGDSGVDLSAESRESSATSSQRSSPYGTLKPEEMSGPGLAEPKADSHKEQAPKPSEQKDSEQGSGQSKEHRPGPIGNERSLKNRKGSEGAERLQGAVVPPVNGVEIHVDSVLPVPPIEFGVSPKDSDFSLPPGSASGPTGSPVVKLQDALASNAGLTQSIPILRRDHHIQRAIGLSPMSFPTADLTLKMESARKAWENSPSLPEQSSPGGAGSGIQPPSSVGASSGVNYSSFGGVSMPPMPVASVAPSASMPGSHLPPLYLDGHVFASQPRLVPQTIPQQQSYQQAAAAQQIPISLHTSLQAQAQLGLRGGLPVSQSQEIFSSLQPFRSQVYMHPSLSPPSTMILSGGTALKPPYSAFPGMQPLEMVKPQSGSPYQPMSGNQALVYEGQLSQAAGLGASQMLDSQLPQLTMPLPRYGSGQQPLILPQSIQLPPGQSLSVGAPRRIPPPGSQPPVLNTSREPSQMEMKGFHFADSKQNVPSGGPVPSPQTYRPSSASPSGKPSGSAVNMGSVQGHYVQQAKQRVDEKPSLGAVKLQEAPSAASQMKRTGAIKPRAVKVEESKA
UniProt P13051: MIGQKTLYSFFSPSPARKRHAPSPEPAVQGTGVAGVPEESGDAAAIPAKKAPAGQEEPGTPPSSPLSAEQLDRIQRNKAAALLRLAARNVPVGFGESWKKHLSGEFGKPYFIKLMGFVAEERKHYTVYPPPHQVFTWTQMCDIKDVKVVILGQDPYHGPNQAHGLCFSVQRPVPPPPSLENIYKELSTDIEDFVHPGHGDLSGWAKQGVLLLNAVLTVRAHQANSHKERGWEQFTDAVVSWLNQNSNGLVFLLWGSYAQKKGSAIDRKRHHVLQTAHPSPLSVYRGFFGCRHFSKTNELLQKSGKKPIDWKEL
UniProt P46937: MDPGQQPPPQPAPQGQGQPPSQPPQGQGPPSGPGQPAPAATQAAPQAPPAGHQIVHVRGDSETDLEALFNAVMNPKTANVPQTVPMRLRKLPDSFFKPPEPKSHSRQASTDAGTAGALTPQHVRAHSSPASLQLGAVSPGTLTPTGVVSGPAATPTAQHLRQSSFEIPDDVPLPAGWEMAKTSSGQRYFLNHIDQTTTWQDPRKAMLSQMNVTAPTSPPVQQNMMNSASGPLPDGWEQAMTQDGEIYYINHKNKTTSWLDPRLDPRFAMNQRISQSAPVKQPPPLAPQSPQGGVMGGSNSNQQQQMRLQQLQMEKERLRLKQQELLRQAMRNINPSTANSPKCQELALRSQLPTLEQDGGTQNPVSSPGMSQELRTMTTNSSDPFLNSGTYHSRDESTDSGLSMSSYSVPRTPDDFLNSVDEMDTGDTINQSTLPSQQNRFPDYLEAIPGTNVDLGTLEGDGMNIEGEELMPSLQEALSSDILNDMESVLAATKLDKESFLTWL

Key:
Experiment in all cases: peptide or protein array; HuProt human proteome microarray; 5 ug/5 ml biotin-labelled LUBAC or OTULIN in solution, 1 h at room temperature; Cy5-streptavidin, scanned at 635 nm; BSA as negative control; hits: Z-score >= 3 and I_(Mean_Ratio) >= 1.4; both purified
ABCA8 (human) = ABCA8 (human) (UniProt O94911)
HNRNPC (human) = HNRNPC (human) (UniProt P07910)
Irx5 = molecular target: T1, Irx5 (UniProt P78411)
T1 sequence: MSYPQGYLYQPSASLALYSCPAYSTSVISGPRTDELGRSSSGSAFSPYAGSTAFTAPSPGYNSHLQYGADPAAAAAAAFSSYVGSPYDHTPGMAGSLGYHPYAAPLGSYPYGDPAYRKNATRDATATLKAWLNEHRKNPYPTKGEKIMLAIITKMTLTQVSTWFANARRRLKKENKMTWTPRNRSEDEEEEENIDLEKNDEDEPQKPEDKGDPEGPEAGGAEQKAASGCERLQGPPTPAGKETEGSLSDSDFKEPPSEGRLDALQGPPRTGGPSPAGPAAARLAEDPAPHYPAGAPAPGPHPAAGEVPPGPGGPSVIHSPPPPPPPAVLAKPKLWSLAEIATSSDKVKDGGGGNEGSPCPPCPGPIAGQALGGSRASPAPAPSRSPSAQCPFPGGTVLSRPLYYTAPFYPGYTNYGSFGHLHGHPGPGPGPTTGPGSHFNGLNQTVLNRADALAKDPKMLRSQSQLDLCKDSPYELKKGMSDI

NFYC (human) = molecular target: T2, NFYC (human) (UniProt Q13952)
T2 sequence: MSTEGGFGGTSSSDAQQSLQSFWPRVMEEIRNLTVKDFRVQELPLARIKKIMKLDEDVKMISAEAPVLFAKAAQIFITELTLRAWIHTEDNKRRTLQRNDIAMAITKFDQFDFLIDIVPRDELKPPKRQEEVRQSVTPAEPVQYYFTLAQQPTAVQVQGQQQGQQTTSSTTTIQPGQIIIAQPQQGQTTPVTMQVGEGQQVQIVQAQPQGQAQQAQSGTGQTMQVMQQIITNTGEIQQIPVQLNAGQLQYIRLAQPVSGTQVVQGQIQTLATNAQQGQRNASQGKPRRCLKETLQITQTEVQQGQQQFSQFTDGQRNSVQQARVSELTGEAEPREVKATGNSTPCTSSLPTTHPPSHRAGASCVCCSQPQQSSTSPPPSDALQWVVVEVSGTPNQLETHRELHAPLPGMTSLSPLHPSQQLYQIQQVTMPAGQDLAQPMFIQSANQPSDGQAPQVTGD

PRRC2B (human) = PRRC2B (human) (UniProt Q5JSZ5)
STAU2 (human) = molecular target: T3, STAU2 (human) (UniProt Q9NUL3)
T3 sequence: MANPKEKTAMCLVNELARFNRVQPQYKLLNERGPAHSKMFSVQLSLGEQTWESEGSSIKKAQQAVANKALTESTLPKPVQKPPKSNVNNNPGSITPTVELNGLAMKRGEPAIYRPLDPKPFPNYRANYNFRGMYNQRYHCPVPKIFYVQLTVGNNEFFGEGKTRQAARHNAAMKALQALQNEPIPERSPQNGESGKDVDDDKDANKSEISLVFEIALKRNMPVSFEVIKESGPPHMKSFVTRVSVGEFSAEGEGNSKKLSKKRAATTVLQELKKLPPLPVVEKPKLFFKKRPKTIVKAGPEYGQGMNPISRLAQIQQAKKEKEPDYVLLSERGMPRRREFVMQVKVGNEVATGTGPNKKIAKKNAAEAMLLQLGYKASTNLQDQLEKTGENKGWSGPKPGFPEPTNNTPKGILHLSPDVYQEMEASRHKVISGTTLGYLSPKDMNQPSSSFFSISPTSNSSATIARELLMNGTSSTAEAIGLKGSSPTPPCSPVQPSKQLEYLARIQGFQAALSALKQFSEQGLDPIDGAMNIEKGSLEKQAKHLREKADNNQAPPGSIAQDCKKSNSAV

UNG (human) = UNG (human) (UniProt P13051)
YAP1 (human) = YAP1 (human) (UniProt P46937)

Measured: binding

OTULIN (OTU deubiquitinase with linear linkage specificity, FAM105B), His-tagged, biotin-labelled (from UniProt Q96BN8 1-352) (enzyme)
binds: all assays above

linear ubiquitin chain assembly complex (LUBAC), purified as HIS-tagged HOIP with the subunit HOIL-1, biotin-labelled (from UniProt Q96EP0 1-1072; Q9BYM8 1-510)
binds: all assays above
